Data reported in PMC1940015.
These are yes or no findings as the source states them, for the method shown. In cells and extracts the contact can be indirect. Binding calls can cover weak binding; strength is not graded here.

Chains of the proteins cited; added tags and fusions are not shown. Lines headed by an entry give the natural chain unless they say otherwise; changes in a name come on top.
UniProt P49024: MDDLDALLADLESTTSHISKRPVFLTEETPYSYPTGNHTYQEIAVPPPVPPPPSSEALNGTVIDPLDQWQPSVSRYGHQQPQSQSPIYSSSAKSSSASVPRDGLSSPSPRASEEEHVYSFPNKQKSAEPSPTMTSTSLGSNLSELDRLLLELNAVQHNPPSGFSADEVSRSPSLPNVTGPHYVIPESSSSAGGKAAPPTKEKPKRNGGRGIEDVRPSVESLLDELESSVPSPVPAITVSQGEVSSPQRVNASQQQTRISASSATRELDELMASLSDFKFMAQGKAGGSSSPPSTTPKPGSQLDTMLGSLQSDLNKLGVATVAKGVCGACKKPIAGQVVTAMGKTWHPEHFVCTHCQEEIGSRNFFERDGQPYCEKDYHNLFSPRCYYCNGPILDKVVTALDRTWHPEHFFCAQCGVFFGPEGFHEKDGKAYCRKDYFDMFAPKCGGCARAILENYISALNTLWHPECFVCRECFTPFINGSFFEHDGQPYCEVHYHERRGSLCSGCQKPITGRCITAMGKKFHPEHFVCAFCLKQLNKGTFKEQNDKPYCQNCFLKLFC

Target: T1, wild-type human α4 integrin, full length (human) (UniProt P13612)
T1 sequence (chain, biotin (cell surface molecules labelled with NHS-LC-Biotin)): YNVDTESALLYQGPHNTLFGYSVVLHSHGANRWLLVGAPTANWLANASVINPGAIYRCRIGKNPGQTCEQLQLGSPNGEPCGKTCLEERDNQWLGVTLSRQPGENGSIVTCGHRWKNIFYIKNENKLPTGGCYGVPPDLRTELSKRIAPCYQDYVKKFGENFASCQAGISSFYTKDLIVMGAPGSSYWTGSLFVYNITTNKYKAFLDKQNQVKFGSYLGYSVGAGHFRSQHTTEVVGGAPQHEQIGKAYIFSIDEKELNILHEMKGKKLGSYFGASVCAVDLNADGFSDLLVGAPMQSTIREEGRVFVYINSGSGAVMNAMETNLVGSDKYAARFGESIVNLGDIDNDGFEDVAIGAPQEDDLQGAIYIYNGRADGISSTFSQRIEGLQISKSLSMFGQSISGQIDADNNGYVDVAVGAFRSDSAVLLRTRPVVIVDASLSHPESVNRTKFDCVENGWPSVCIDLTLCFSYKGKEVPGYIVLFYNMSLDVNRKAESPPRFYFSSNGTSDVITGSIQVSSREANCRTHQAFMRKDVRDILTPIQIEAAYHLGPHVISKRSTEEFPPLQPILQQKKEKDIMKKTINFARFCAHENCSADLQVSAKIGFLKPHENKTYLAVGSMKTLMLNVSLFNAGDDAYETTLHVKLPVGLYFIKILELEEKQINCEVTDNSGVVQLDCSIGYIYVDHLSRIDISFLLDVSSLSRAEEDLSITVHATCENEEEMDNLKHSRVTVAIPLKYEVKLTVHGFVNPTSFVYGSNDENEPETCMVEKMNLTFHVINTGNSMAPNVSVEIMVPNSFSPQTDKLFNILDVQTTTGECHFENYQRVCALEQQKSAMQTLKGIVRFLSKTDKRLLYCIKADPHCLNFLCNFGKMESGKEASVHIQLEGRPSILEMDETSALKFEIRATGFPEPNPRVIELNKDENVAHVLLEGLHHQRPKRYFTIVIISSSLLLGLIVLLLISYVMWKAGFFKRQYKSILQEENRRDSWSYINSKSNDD
Assay: co-IP; lysates of biotin-labelled PC12 cells co-expressing wild-type α4 and FLAG-paxillin constructs; immunoprecipitated with anti-α4, re-immunoprecipitated with anti-FLAG, western blot with anti-paxillin antibody

**Q.** For “FLAG-tagged chicken paxillin lacking the LD4 domain (from UniProt P49024)”, which binding is on record?
**A.** binds
